From publication PMC6136712, “Ex vivo drug sensitivity testing as a means for drug repurposing in esophageal adenocarcinoma” (PLoS ONE, 2018)

System: normal esophageal epithelium cell line EACN42
Experiment: FDA library drug sensitivity testing (CellTiter-Glo, 72 h), normal control cells
Type: cell-based
Conditions: Homo sapiens, cell viability (ATP), max test concentration 10μM
Protocol: The normal esophageal epithelium cell line EACN42 was established in the Capobianco laboratory. The cell lines was derived from human normal epithelium and immortalized using HPV E6-E7.
Drug sensitivity testing (DST) was performed as described previously. […] Individual drugs were dissolved in 100% DMSO and tested in duplicates starting at a maximal test concentration of 10μM then over a 20,000-fold concentration range to generate dose response curves. Wells with assay buffer containing DMSO served as negative controls. 1000 exponentially growing cells were seeded per well in 384-well micro-titer plates and incubated in the presence of compounds in a humidified environment at 37°C and 5% CO2. After 72 hours of treatment, cell viability was assessed by measuring ATP levels via bioluminescence (CellTiter-Glo, Promega) according to manufactures recommendations. Interpretation of curve parameters was performed according to the modified drug sensitivity scoring (DSSmod) function developed by Swords et al. […] Given in this way, the sDSSmod incorporated information on each drug’s potency, efficacy, effect range and therapeutic index, making it possible to prioritize compounds over multiple parameters using a single numerical metric. […] All calculations and scoring routines are implemented in MatLab and additional curve fitting and statistical analyses are performed in GraphPad prism.

SMILES: O=C(CCCCCCC(=O)Nc1ccccc1)NO [Vorinostat]
- EC50: 4.41 µM
